Experimental data taken from article PMC11720480.
Results are given in words; binding and its absence hold for the method and conditions named. Some entries that bind do so weakly or less than the wild type. Where a sequence is shown, tags or fusion partners need not be part of it.

Target: T1, OsNAR2.1 (rice high-affinity nitrate transporter-activating protein 2.1), yeast two-hybrid fusion (O. sativa) (UniProt Q6ZI50)
T1 sequence: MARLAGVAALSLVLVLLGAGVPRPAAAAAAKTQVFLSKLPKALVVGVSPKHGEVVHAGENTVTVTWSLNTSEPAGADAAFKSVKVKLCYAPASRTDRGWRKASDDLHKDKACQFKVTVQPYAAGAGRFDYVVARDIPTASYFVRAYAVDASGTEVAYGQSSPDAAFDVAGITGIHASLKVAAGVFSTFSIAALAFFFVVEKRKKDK
Assay: two-hybrid; yeast strain NMY51, vectors pBT3-STE and pPR3-N, co-transformants spotted on SD-Trp-Leu and SD-Trp-Leu-His-Ade, growth observed after 48-72 h

B1: OsNRT2.3a (rice high-affinity nitrate transporter 2.3), yeast two-hybrid fusion (protein, UniProt Q94JG1-1 1-516)
chain: MEAKPVAMEVEGVEAAGGKPRFRMPVDSDLKATEFWLFSFARPHMASFHMAWFSFFCCFVSTFAAPPLLPLIRDTLGLTATDIGNAGIASVSGAVFARLAMGTACDLVGPRLASASLILLTTPAVYCSSIIQSPSGYLLVRFFTGISLASFVSAQFWMSSMFSAPKVGLANGVAGGWGNLGGGAVQLLMPLVYEAIHKIGSTPFTAWRIAFFIPGLMQTFSAIAVLAFGQDMPGGNYGKLHKTGDMHKDSFGNVLRHALTNYRGWILALTYGYSFGVELTIDNVVHQYFYDRFDVNLQTAGLIAASFGMANIISRPGGGLLSDWLSSRYGMRGRLWGLWTVQTIGGVLCVVLGIVDFSFAASVAVMVLFSFFVQAACGLTFGIVPFVSRRSLGLISGMTGGGGNVGAVLTQYIFFHGTKYKTETGIKYMGLMIIACTLPVMLIYFPQWGGMLVGPRKGATAEEYYSREWSDHEREKGFNAASVRFAENSVREGGRSSANGGQPRHTVPVDASPAGV
With B1 the binding was “binds”.
